Taken from: PubChem BioAssay AID504764 (Drosophila RNAi Screening Center, 2011)

- Purpose: 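Genome-wide screen for regulators of Notch-driven gene expression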 (primary screen)
- Cell system: Drosophila Kc167 cells
- Reagents: long dsRNA against Drosophila genes
- Duration: about 5 days (4 days dsRNA, then 24 h after transfection)
- Challenge: transfection of constitutively active membrane-tethered Notch lacking the extracellular domain, read 24 h later
- Read-out: 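Light from a Notch-responsive E(spl)m3 luciferase reporter under active Notch, with control-promoter and no-Notch reporter wells to normalise; raw counts from paired wells a and b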
- Direction: induced reporter light, run 1, well a and induced reporter light, run 1, well b: higher = more light from the Notch target reporter with active Notch; control promoter light, run 1, well a and control promoter light, run 1, well b: higher = more light from the viral control promoter (cell number, transfection, viability); uninduced reporter light, run 1, well a: higher = more light from the Notch target reporter without active Notch
- Call rule: 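Wells with low control signal or poorly matching duplicates excluded; duplicates averaged; per source plate, z beyond ±2 for induced/control log2 ratio or beyond ±1.8 for induced/uninduced marks a hit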
- Calls: active = modifier hit (raised or lowered Notch signal); inactive = not a hit
The screen tested about 22,000 reagents; below is a random part of those with a known target gene and a result. Of all reagents, 403 (1.9%) got an active call. 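Unnormalised raw counts per well; ratio z-scores behind the hit calls and whether each hit raises or lowers signal are not deposited.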 A plus sign joins genes that one reagent is predicted to hit. Reagent sequences are not shown. Not given: the amount of reagent.

| predicted target | dsRNA | induced reporter light, run 1, well a | induced reporter light, run 1, well b | control promoter light, run 1, well a | control promoter light, run 1, well b | uninduced reporter light, run 1, well a | call |
| --- | --- | --- | --- | --- | --- | --- | --- |
| Zwilch | DRSC15376 | 1.54e5 | 1.40e5 | 1.99e5 | 2.04e5 | 12580 | inactive |
| msl-2 (male-specific lethal 2) | DRSC00829 | 1.57e5 | 1.71e5 | 1.41e5 | 1.57e5 | 14738 | inactive |
| CG9961 | DRSC00738 | 91735 | 1.01e5 | 83905 | 61555 | 7050 | inactive |
| Slmap (Sarcolemma associated protein) | DRSC03799 | 34310 | 24895 | 30390 | 20470 | 1990 | inactive |
| CG13078 | DRSC02182 | 43380 | 43775 | 47150 | 49205 | 4015 | inactive |
| Pex11ab (Peroxin 11a/b) | DRSC07145 | 31155 | 39270 | 37310 | 52850 | 4700 | inactive |
| Ser (Serrate) | DRSC16856 | 1.84e5 | 1.71e5 | 3.06e5 | 2.31e5 | 16930 | inactive |
| beat-IIIc (beaten path IIIc) | DRSC02438 | 1.69e5 | 1.74e5 | 1.79e5 | 2.05e5 | 14965 | inactive |
| beat-IIIc (beaten path IIIc) | DRSC02949 | 1.14e5 | 1.42e5 | 1.34e5 | 1.49e5 | 9940 | inactive |
| CG4849 | DRSC15662 | 17415 | 17750 | 13385 | 19895 | 840 | inactive |
| CG13685 | DRSC10043 | 3.04e5 | 2.20e5 | 3.09e5 | 1.86e5 | 14900 | inactive |
| Gr63a (Gustatory receptor 63a) | DRSC08438 | 86625 | 1.46e5 | 1.89e5 | 1.42e5 | 7670 | inactive |
| CG14624 | DRSC18634 | 84945 | 97965 | 1.16e5 | 1.11e5 | 8130 | inactive |
| CG17999 | DRSC04300 | 1.79e5 | 1.67e5 | 1.83e5 | 1.93e5 | 14310 | inactive |
| Catsup (Catecholamines up) | DRSC03288 | 42720 | 36830 | 37765 | 46355 | 2365 | inactive |
| CG13377 | DRSC18622 | 1.12e5 | 1.17e5 | 2.14e5 | 2.49e5 | 9310 | inactive |
| Cht2 (Chitinase 2) | DRSC08650 | 87020 | 83595 | 1.44e5 | 1.68e5 | 7070 | inactive |
| Fit1 (Fermitin 1) | DRSC08450 | 1.44e5 | 1.23e5 | 1.21e5 | 41865 | 11515 | inactive |
| CG6428 | DRSC18402 | 1.44e5 | 1.28e5 | 2.44e5 | 2.50e5 | 10660 | inactive |
| CG7512 | DRSC10863 | 2.50e5 | 1.90e5 | 2.71e5 | 2.03e5 | 11480 | inactive |
| CG17683 | DRSC21160 | 98705 | 86640 | 82155 | 1.16e5 | 9035 | inactive |
| CG32212 + hpRNA:CR33940 | DRSC09618 | 2.42e5 | 2.55e5 | 3.27e5 | 3.06e5 | 20735 | inactive |
| CG15865 | DRSC19733 | 66320 | 54780 | 66630 | 49510 | 8015 | inactive |
| CG3906 | DRSC04431 | 64610 | 70085 | 58790 | 54850 | 5005 | inactive |
| Cerk (Ceramide kinase) | DRSC12285 | 1.45e5 | 1.27e5 | 88470 | 84150 | 9378 | inactive |
| Liprin-gamma | DRSC04093 | 1.45e5 | 1.66e5 | 2.93e5 | 2.63e5 | 12415 | inactive |
| Pura (Puratrophin-1-like) | DRSC08891 | 1.85e5 | 1.78e5 | 1.48e5 | 1.83e5 | 11345 | inactive |
| Pura (Puratrophin-1-like) | DRSC10862 | 1.60e5 | 1.24e5 | 1.59e5 | 1.49e5 | 7700 | inactive |
| Pura (Puratrophin-1-like) | DRSC10864 | 1.78e5 | 1.67e5 | 1.69e5 | 1.48e5 | 6935 | inactive |
| Pura (Puratrophin-1-like) | DRSC10865 | 1.58e5 | 1.31e5 | 1.57e5 | 1.30e5 | 9650 | inactive |
| Pura (Puratrophin-1-like) | DRSC10866 | 2.67e5 | 2.13e5 | 2.97e5 | 2.26e5 | 10570 | inactive |
| CG45105 | DRSC15002 | 53610 | 46055 | 32420 | 26565 | 5465 | inactive |
| CG45105 | DRSC15833 | 1.73e5 | 1.44e5 | 1.57e5 | 1.59e5 | 9245 | inactive |
| CG4021 | DRSC04439 | 27270 | 31440 | 27470 | 26855 | 1490 | inactive |
| CG5592 | DRSC10524 | 2.87e5 | 2.30e5 | 4.14e5 | 4.12e5 | 12035 | inactive |
| Cdk2 (Cyclin-dependent kinase 2) | DRSC16921 | 1.63e5 | 1.73e5 | 2.18e5 | 1.86e5 | 16685 | inactive |
| CG15082 | DRSC06513 | 35555 | 33190 | 57920 | 33470 | 4340 | inactive |
| Reg-2 (Rhythmically expressed gene 2) | DRSC08690 | 88550 | 1.09e5 | 1.81e5 | 2.23e5 | 8815 | inactive |
| ds (dachsous) | DRSC00815 | 93235 | 1.24e5 | 94405 | 64745 | 9065 | inactive |
| Frmd5 (FERM domain containing) | DRSC02802 | 98475 | 1.28e5 | 48370 | 85010 | 14580 | inactive |
| CG17290 | DRSC06662 | 72870 | 72410 | 78320 | 77840 | 6230 | inactive |
| CG42685 | DRSC01971 | 1.29e5 | 1.66e5 | 1.56e5 | 1.29e5 | 16945 | inactive |
| CG34136 | DRSC01833 | 1.11e5 | 98525 | 94060 | 1.16e5 | 11082 | inactive |
| SF1 (Splicing factor 1) | DRSC16844 | 2.39e5 | 2.27e5 | 1.92e5 | 1.85e5 | 21338 | inactive |
| Cyp6a15Psi (pseudo) | DRSC07377 | 1.62e5 | 1.56e5 | 2.19e5 | 2.06e5 | 15380 | inactive |
| CG42758 | DRSC10021 | 2.02e5 | 1.72e5 | 1.94e5 | 1.78e5 | 10992 | inactive |
| Cyp312a1 (Cytochrome P450 312a1) | DRSC11128 | 1.58e5 | 1.55e5 | 2.14e5 | 1.99e5 | 10635 | inactive |
| Herp (Homocysteine-induced endoplasmic reticulum protein) | DRSC02394 | 94515 | 1.05e5 | 94955 | 82235 | 6840 | inactive |
| CG32085 | DRSC10138 | 1.36e5 | 1.28e5 | 1.75e5 | 1.31e5 | 6620 | inactive |
| CG32085 | DRSC10139 | 1.13e5 | 1.32e5 | 1.35e5 | 1.26e5 | 3750 | inactive |
| CG32085 | DRSC10576 | 1.67e5 | 1.80e5 | 2.89e5 | 2.21e5 | 6430 | inactive |
